From PubChem BioAssay AID504444 (National Center for Advancing Translational Sciences (NCATS), 2011)
The whole screen tested about 360,000 compounds, of which about 7,500 (2.1%) were called active. This list was built around the results that the source calls inconclusive (neither active nor inactive); the mix of calls is not that of the screen. The call rests on the fitted dose curve; in most records, active means well fitted inhibition curve with a large enough effect; inconclusive means small, poorly fitted or top-dose-only effect, or effect the other way; inactive means flat fitted curve, though single readings scatter. Potencies of inconclusive entries are doubtful fits and often do not repeat.

Assay: Nrf2 qHTS screen for inhibitors; further: nearly all actives have a fitted effect of over 60% in size
Conditions: A549 ARE-Fluc reporter, luciferase luminescence, 18-24 h; series mostly up to 46 µM
Method in brief: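 Concentration-response testing used A549 ARE_Fluc cells at 5000 cells/well. Following an 18-24 h compound incubation, viability was read by fluorescence (Ex 405/Em 525) and luciferase output by luminescence.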
Potency means the concentration at half of the fitted maximal effect.

SMILES	Potency
CCC1CCCCN1C(=O)CSC1=NN2CCCC(=O)N=C2S1 (stereo unspecified)	inconclusive: 20.6 µM [activator, single point]
Cc1ccc(C)c(N(C(=O)Cn2nnc(-c3cccs3)n2)C(C(=O)NC2CC2)c2ccc(C)o2)c1 (stereo unspecified)	inconclusive: 23.1 µM [falling, single point]
C=CCOc1ccc(CN(C)c2ccc(S(=O)(=O)N3CCN(C)CC3)cc2[N+](=O)[O-])cc1	inactive
CCc1cccc(CC)c1NC(=O)c1cc(CN2C(=O)c3ccccc3C2=O)ccc1OC	inconclusive: 23.1 µM [falling, partial curve]
Cc1ccc(S(=O)(=O)N2CCOCC2)cc1NC(=O)COc1ccccc1Cc1ccccc1	inconclusive: 29.1 µM [falling, single point]
NC(=O)c1ccsc1NC(=O)COC(=O)CCOc1ccccc1	inconclusive: 25.9 µM [falling, partial curve, poor fit]
CCOC(=O)c1cccc(NC(=O)[C@@H](c2ccccc2)N2Cc3ccccc3C2=O)c1	inactive
CC(C)CC1c2[nH]c3ccccc3c2CCN1CCCn1cccn1 (stereo unspecified)	inconclusive: 18.4 µM [activator, single point]
O=C(CSc1nnc(-c2ccccn2)o1)Nc1ccccc1F	inconclusive: 2.59 µM [activator, full curve, poor fit]
CS(=O)(=O)N(CC(=O)N1CCN(c2ccccc2)CC1)c1cccc(Br)c1	inconclusive: 7.31 µM [falling, partial curve, poor fit]
CCc1cc2c(SCC(=O)c3ccc(C)cc3)ncnc2s1	inconclusive: 13 µM [activator, partial curve, poor fit]
C=CCN1C(=O)/C(=C/c2ccc(OCC(=O)O)cc2)S/C1=N/c1nccs1	inactive
O=C(Nc1ccc([N+](=O)[O-])cc1)c1ccc(Cn2cc([N+](=O)[O-])cn2)cc1	active: 18.4 µM
CC(C)(C)OC(=O)N1CCC(c2c(C(=O)N3CCC(c4ccccc4)C3)cnn2-c2cccc(Cl)c2)CC1 (stereo unspecified)	inconclusive: 4.61 µM [falling, single point]
COc1ccc(NC(=O)CNC(=O)C23CC4CC(CC(C4)C2)C3)c(OC)c1	inactive
CCOC(=O)C1(CCc2ccccc2)CCN(C(=O)Cc2nonc2C)CC1	inconclusive: 23.1 µM [activator, partial curve, poor fit]
O=C(O)C1CCN(C(=O)NC2CCCCC2)CC1	inconclusive: 6.51 µM [activator, single point]
CCc1ccc(OCCOCC(O)CNC(C)CC)cc1 (stereo unspecified)	inconclusive: 3.66 µM [falling, partial curve, poor fit]
Cc1cccnc1NCc1ccc(O)c2ncccc12	inconclusive: 32.6 µM [falling, partial curve, poor fit]
CCCCCS(=O)(=O)c1oc(-c2cccs2)nc1S(=O)(=O)c1ccc(C)cc1	inactive
CCOC(=O)c1sc(S(C)=O)c2c1CCc1conc1-2 (stereo unspecified)	inactive
Cc1cc(C(=O)Nc2ccc3ccccc3c2)oc1C	inconclusive: 3.66 µM [activator, partial curve]
CC(C)C(=O)Nc1cc(S(=O)(=O)Nc2ccc(Cl)cc2)ccc1Cl	inconclusive: 18.4 µM [falling, single point]
Brc1ccc2ncnc(NCc3ccco3)c2c1	inconclusive: 13 µM [falling, partial curve]

SMILES	Potency
O=C(N/N=C/c1c[nH]c2ccccc12)C1CC1c1ccccc1 (stereo unspecified)	inconclusive: 16.4 µM [falling, single point]
Cc1ccc(CNC(=O)Cn2ccc3cc(S(=O)(=O)N4CCCCCC4)ccc32)cc1	active: 14.6 µM
COc1ccc(NC(=O)c2ccc(-c3ccccc3)cc2)cc1NS(=O)(=O)c1ccc(F)cc1	active: 14.6 µM
CC(C)C(NC(=O)c1ccccc1F)C(=O)NCC(c1ccco1)N1CCCCC1 (stereo unspecified)	inconclusive: 25.9 µM [activator, partial curve, poor fit]
CCCCNC(=S)N(C)/N=C/c1ccc(OCC(=O)Nc2c(C)cc(C)cc2C)c(OC)c1	inconclusive: 9.2 µM [falling, partial curve, poor fit]
Cc1ccc(N(CCCCN2C(=O)c3ccccc3C2=O)C(=O)c2cccc([N+](=O)[O-])c2)cc1	inconclusive: 29.1 µM [falling, single point]
CC(=O)c1cccc(-n2nnnc2SCC(=O)Nc2cccc(NC(=O)c3ccco3)c2)c1	inconclusive: 25.9 µM [falling, single point]
Cc1ccc(C(=O)Nc2ccc(-c3cn4cccnc4n3)cc2)cc1C	active: 23.1 µM
Cc1ccc2nc(N3C(=O)C(O)=C(C(=O)c4ccco4)C3c3cccs3)sc2c1 (stereo unspecified)	inconclusive: 29.1 µM [falling, single point]
CCOC(=O)c1c(C)nc2sc3c(=O)n(-c4ccc(C(C)=O)cc4)cnc3c2c1-c1ccc(Cl)cc1	active: 23.1 µM
COc1cccc(NC(=O)CN2C(=O)c3cccnc3Oc3ccc(Cl)cc32)c1	inconclusive: 1.84 µM [activator, partial curve, poor fit]
O=C(NCC1CCN(Cc2cccc(Cl)c2)CC1)Nc1cc(Cl)ccc1Cl	inconclusive: 29.1 µM [falling, single point]
O=C(CSc1nc2ccccc2c(=O)n1Cc1ccco1)c1ccccc1	active: 18.4 µM
O=c1c(-c2ccco2)[n+]([O-])c2ccccc2n1OCc1c(F)cccc1F	inactive
COc1ccc(-c2csc3ncnc(N4CCN(c5ccccc5O)CC4)c23)cc1	inconclusive: 32.6 µM [falling, partial curve, poor fit]
Cc1ccccc1-c1nnc(SCc2ccccc2)o1	inconclusive: 23.1 µM [activator, single point]
O=c1cc(-c2ccccc2Cl)oc2c([N+](=O)[O-])c(O)cc(O)c12	active: 13 µM
COc1ccc(Br)cc1CN(C)C(C)C(=O)Nc1cccc(C(C)=O)c1 (stereo unspecified)	inconclusive: 29.1 µM [falling, single point]
CCOc1ccc(NC(=O)CSc2nnc(C3CC3)n2C2CC2)cc1	inactive
COc1ccc(-c2nc3ccc(N4CCCC4)cc3c(=O)[nH]2)cc1OC	inconclusive: 14.6 µM [falling, partial curve]
O=C(N[C@H]1CCC(=O)N(CCSc2ccc(Br)cc2)CC1)OCc1ccccc1	inconclusive: 25.9 µM [falling, partial curve, poor fit]
COc1ccc(S(=O)(=O)N2CCN(c3ccccc3)CC2)cc1	inconclusive: 0.0046 µM [falling, full curve, poor fit]
COc1ccc(N(C)C(=O)c2cn(C3CCCCC3)c(=O)c3c2c2ccccc2n3C)cc1	inconclusive: 29.1 µM [falling, single point]
O=C(NCCc1csc(-c2ccccc2)n1)c1c(F)cccc1F	inconclusive: 0.0046 µM [falling, full curve, poor fit]

SMILES	Potency
O=C(c1ccc(N2CCN(CCO)CC2)nc1)N1CCOCC1	inactive
N=c1ccn(CC(=O)c2ccc(-c3ccccc3)cc2)cc1	active: 7.31 µM
CSc1cccc(NC(=O)CN2C(=O)COc3ccc(Cl)cc32)c1	active: 16.4 µM
CCOc1ccc(C(=O)N2CCC(c3nc4ccccc4o3)CC2)cc1	inconclusive: 29.1 µM [falling, single point]
CCOC(=O)C1CCN(c2ncnc3c2oc2ccccc23)CC1	inactive
CCOC(=O)c1ccccc1NC(=O)c1cncc(Br)c1	inactive
Cc1cccnc1NC(=O)Nc1ccc(Cl)cc1	inconclusive: 4.61 µM [activator, full curve]
CCCn1c(/C=N/Nc2nc3ccccc3[nH]2)nc2ccccc21	active: 14.6 µM
Cc1nn(-c2ccccc2)c2c1C1(C(=O)N3c4c(cccc41)C(C)CC3(C)C)C(C#N)=C(N)O2 (stereo unspecified)	inconclusive: 29.1 µM [falling, single point]
COc1ccccc1-c1nnc(SCC(=O)c2ccc(Cl)cc2)n1-c1ccccc1	inconclusive: 29.1 µM [falling, single point]
Nc1nccc(/C=C/c2c(Cl)cccc2Cl)n1	inactive
COc1ccc(N2CCCn3c2nc2c3c(=O)n(CCc3ccccc3)c(=O)n2C)cc1	inactive
CCCCc1ccc(NC(=O)c2cc3c(=O)n4ccccc4nc3s2)cc1	inactive
O=C(COC(=O)c1cccc2ccccc12)Nc1cccnc1Cl	inactive
Cn1c(=O)[nH]c(=O)c2c1nc([N+](=O)[O-])n2Cc1ccccc1	active: 23.1 µM
CC(C)N=C1SC(CC(=O)Nc2ccccc2)C(=O)N1C(C)C (stereo unspecified)	inconclusive: 20.6 µM [falling, partial curve, poor fit]
CC(NC(=O)c1ccc2c(c1)CCN2S(=O)(=O)c1ccc(Cl)cc1)c1ccccc1 (stereo unspecified)	inactive
Cc1c(C)c2ccc(OCc3ccc(C(=O)O)o3)c(C)c2oc1=O	inconclusive: 20.6 µM [activator, single point]
COc1ccc(NC(c2ccccc2)c2ccncc2)cc1 (stereo unspecified)	inactive
C/C(=N\Nc1ccc2nncn2n1)c1ccccn1	active: 3.66 µM
Cc1cccc(C(=O)Nc2nc(C)c(C(=O)Nc3ccc4c(c3)CCC4)s2)c1	inconclusive: 29.1 µM [falling, single point]
CC(C)CCN1CCN=C1N(C)C	inconclusive: 29.1 µM [activator, single point]
O=C(Nc1ccc2c(c1)OCCO2)c1cnccn1	inconclusive: 2.06 µM [activator, partial curve, poor fit]
